Values from PubChem BioAssay AID1259425 (University of Nebraska Medical Center, 2018)

Purpose: 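Find knockdowns that reproduce the gene expression pattern seen when KSR1 is lost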 (primary screen)
System: HCT116 human colon cancer cells
Knock-down reagent: siRNA pool against human genes, 50 nM siRNA
Measured: 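After 50 nM siRNA pool, branched-DNA assay measures six marker transcripts per well, minus blank, normalised to the geometric mean of two housekeeping transcripts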
Scale: BNIP3L mRNA: higher = more BNIP3L transcript after knockdown; NDRG1 mRNA: higher = more NDRG1 transcript after knockdown; BNIP3 mRNA: higher = more BNIP3 transcript after knockdown; ALDOC mRNA: higher = more ALDOC transcript after knockdown; ACSL5 mRNA: higher = more ACSL5 transcript after knockdown
This is one part, drawn at random, of about 14,000 deposited reagents. No sequences are given here. Not stated in the record: the time to read-out.

Target gene,PubChem SID,"BNIP3L mRNA, set 1","NDRG1 mRNA, set 1","BNIP3 mRNA, set 1","ALDOC mRNA, set 1","ACSL5 mRNA, set 1"
GATAD2B (GATA zinc finger domain containing 2B),SID364001786,0.154,0.099,0.384,0.00571,0.231
MANF (mesencephalic astrocyte derived neurotrophic factor),SID363996863,0.0652,0.234,0.175,0.0159,0.0563
ATN1 (atrophin 1),SID363993153,0.0625,0.0917,0.327,0.00784,0.24
SNTB1 (syntrophin beta 1),SID364001960,0.173,0.354,0.362,0.0999,0.172
CD22 (CD22 molecule),SID363992990,0.143,0.189,0.217,0.0192,0.185
DCAF12 (DDB1 and CUL4 associated factor 12),SID363999467,0.128,0.174,0.501,0.0552,0.141
PRAC1 (PRAC1 small nuclear protein),SID364003965,0.15,0.259,0.278,0.0285,0.357
CD3G (CD3 gamma subunit of T-cell receptor complex),SID363991410,0.0925,0.199,0.311,0.0305,0.149
SFMBT1 (Scm like with four mbt domains 1),SID364000037,0.0741,0.181,0.308,0.0137,0.146
SERPINE2 (serpin family E member 2),SID363997041,0.163,0.449,0.269,0.00673,0.383
SBDS (SBDS ribosome maturation factor),SID363999815,0.0659,0.0955,0.243,0.0208,0.219
ACACA (acetyl-CoA carboxylase alpha),SID364004985,0.153,0.301,0.2,0.0869,0.222
RYK (receptor like tyrosine kinase),SID363994109,0.0986,0.129,0.288,0.00985,0.265
ALDH3B2 (aldehyde dehydrogenase 3 family member B2),SID363991994,0.0438,0.0535,0.28,0.0287,0.111
PNRC2 (proline rich nuclear receptor coactivator 2),SID364000506,0.0369,0.112,0.233,0.0117,0.11
KIAA0232,SID364005373,0.0853,0.255,0.295,0.0136,0.126
SPSB1 (splA/ryanodine receptor domain and SOCS box containing 1),SID364003251,0.178,0.592,0.469,0.0487,0.153
FFAR1 (free fatty acid receptor 1),SID363996220,0.0853,0.594,0.332,0.0222,0.25
ELAVL4 (ELAV like RNA binding protein 4),SID364002243,0.178,0.582,0.336,0.0555,0.0662
"POLG2 (DNA polymerase gamma 2, accessory subunit)",SID363997911,0.0511,0.179,0.284,0.0145,0.117
